Experimental data as given in the supplement of paper PMC12823440, “Inhibitors supercharge kinase turnover through native proteolytic circuits” (Nature, 2025).
This is one part of the list. Hit calls seldom repeat between salt and free forms of one compound.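 In K562 cells expressing nanoluciferase-fused kinases, luminescence was recorded at 4 h intervals between 2 and 18 h, normalized as percent of control with DMSO at 100% and a positive control at 0%. A significant (2 sigma) signal drop marks a time point as decreased. The authors' rule for a hit is not shown and takes in more than the number of time points.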

By UniProt entry, the sequences of proteins in these tests, tags left out. Where a name states a change or a piece, a line headed by the entry shows the natural chain unless it says otherwise.
UniProt P29317, whole entry: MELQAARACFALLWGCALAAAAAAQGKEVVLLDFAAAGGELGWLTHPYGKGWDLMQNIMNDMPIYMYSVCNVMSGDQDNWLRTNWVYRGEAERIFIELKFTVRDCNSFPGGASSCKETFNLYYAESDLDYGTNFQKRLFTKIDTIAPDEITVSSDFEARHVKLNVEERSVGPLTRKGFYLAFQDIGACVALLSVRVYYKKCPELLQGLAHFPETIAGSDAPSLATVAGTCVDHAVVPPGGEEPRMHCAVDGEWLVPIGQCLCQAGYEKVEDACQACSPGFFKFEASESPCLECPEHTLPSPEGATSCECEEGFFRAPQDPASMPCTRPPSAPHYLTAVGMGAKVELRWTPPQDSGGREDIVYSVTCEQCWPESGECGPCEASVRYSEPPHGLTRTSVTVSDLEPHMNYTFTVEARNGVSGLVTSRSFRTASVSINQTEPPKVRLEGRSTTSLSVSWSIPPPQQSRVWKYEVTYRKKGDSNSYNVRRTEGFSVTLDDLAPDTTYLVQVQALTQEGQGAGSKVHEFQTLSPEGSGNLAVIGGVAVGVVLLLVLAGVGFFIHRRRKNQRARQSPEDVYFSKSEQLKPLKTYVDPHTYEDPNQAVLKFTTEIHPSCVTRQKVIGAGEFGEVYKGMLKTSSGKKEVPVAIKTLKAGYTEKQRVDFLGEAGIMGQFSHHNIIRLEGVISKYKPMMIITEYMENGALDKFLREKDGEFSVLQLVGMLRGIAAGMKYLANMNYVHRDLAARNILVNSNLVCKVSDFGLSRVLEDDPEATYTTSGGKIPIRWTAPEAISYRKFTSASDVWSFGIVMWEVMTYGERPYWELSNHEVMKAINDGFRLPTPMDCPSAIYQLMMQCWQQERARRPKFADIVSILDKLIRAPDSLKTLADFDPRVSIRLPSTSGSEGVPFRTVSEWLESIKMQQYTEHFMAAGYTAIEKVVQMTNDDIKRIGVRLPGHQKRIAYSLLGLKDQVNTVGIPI
UniProt P21860, whole entry: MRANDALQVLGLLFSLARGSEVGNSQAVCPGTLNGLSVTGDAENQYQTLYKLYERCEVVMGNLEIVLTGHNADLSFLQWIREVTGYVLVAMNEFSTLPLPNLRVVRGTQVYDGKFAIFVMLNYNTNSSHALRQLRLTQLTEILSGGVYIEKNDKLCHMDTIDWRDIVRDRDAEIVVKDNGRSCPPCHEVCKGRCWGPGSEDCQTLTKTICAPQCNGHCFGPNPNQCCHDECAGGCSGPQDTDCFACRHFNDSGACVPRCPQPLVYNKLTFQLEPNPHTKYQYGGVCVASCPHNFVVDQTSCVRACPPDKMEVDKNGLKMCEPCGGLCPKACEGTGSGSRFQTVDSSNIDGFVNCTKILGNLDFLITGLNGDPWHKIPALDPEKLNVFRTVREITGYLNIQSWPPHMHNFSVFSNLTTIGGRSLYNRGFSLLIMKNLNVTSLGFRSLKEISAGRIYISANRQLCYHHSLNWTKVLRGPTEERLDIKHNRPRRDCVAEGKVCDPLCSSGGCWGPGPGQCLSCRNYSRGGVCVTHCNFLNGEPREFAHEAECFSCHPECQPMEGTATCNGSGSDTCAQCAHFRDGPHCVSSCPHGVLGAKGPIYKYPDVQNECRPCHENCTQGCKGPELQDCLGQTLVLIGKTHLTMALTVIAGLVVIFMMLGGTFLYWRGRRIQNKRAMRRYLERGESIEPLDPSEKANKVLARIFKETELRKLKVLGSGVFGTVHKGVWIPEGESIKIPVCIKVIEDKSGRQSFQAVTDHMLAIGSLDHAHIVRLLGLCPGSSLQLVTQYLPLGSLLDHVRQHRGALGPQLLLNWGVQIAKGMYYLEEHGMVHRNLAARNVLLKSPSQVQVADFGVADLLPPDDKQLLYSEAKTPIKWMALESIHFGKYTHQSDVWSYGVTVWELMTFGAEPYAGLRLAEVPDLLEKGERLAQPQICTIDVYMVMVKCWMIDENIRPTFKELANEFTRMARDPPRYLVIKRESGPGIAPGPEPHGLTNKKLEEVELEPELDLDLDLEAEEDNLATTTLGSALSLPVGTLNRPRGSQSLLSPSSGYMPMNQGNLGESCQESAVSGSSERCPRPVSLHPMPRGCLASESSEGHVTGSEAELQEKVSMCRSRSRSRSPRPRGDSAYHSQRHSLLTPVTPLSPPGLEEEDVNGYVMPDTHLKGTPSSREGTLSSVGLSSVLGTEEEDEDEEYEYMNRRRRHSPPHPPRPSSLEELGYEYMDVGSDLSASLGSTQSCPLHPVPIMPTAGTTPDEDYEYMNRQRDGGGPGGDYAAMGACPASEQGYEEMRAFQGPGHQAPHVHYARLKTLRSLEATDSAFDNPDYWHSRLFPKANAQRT
UniProt P22607, whole entry, looked up: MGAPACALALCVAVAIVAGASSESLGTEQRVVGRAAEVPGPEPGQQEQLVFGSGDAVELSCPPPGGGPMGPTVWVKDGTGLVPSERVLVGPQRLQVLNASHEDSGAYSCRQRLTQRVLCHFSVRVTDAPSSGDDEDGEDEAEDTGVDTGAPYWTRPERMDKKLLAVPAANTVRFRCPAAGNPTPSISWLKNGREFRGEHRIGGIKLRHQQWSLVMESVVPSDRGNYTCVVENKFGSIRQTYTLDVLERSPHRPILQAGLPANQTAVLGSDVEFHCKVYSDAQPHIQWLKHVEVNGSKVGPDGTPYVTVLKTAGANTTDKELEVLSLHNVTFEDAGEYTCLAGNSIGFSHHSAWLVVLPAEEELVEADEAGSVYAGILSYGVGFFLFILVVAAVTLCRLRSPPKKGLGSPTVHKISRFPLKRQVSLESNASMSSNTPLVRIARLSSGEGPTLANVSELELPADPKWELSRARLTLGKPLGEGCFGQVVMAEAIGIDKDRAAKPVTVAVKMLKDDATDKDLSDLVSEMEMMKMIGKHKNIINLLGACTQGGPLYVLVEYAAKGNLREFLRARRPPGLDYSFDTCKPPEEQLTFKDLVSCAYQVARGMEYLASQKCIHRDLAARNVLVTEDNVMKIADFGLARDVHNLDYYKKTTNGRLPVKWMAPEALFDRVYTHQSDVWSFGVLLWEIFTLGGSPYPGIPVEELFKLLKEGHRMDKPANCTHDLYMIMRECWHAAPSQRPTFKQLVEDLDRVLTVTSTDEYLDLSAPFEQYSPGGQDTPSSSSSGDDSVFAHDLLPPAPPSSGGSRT
UniProt P36888, whole entry: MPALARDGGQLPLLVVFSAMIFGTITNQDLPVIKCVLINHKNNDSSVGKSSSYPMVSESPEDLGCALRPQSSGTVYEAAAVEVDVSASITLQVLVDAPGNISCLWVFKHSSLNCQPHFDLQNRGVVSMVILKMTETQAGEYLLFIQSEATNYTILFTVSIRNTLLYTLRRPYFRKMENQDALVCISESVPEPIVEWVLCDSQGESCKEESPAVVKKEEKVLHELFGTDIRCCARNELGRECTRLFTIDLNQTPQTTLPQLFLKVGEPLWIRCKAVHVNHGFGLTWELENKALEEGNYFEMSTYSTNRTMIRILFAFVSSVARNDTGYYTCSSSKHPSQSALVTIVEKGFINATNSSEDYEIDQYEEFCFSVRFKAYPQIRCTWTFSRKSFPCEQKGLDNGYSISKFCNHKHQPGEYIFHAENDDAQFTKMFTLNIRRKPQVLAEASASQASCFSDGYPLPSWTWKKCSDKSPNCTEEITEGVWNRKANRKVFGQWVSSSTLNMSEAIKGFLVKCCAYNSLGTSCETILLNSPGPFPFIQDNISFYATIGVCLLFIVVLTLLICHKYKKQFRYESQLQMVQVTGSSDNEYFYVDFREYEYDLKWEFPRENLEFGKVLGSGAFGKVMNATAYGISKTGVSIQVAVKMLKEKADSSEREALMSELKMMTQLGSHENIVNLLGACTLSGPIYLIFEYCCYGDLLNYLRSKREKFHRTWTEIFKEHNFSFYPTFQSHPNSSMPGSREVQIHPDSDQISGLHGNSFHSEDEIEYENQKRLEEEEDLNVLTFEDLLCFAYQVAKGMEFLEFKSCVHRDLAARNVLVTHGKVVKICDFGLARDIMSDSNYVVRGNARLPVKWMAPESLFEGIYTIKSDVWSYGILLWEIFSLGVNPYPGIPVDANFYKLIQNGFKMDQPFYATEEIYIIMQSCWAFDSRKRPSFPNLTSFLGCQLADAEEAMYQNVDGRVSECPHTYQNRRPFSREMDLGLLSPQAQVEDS
UniProt P06241, whole entry, looked up: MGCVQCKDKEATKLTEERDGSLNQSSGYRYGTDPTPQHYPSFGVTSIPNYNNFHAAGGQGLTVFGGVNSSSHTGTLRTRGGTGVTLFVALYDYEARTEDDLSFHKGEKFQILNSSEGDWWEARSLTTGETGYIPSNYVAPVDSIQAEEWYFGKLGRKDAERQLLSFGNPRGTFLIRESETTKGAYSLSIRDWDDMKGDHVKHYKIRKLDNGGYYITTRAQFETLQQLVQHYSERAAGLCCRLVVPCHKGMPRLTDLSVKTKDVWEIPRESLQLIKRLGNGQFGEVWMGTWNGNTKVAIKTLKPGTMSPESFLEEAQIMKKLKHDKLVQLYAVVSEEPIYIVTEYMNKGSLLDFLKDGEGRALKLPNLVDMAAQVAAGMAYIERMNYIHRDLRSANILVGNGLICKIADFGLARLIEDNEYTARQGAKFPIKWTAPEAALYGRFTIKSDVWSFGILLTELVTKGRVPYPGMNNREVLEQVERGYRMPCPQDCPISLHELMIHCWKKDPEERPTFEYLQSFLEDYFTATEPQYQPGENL
UniProt P49840: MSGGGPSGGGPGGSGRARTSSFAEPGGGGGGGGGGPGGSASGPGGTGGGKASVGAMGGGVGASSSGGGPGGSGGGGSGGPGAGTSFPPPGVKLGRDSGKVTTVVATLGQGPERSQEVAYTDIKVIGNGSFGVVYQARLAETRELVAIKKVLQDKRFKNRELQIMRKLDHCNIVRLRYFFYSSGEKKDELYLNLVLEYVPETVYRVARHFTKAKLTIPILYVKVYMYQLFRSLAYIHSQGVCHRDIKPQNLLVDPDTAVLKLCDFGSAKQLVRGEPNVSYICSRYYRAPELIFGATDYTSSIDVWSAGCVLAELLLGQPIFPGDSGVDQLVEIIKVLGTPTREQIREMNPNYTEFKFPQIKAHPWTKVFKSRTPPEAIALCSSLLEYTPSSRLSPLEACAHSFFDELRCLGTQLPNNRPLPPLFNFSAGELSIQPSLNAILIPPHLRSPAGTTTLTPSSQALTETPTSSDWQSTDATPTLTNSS
UniProt P14616: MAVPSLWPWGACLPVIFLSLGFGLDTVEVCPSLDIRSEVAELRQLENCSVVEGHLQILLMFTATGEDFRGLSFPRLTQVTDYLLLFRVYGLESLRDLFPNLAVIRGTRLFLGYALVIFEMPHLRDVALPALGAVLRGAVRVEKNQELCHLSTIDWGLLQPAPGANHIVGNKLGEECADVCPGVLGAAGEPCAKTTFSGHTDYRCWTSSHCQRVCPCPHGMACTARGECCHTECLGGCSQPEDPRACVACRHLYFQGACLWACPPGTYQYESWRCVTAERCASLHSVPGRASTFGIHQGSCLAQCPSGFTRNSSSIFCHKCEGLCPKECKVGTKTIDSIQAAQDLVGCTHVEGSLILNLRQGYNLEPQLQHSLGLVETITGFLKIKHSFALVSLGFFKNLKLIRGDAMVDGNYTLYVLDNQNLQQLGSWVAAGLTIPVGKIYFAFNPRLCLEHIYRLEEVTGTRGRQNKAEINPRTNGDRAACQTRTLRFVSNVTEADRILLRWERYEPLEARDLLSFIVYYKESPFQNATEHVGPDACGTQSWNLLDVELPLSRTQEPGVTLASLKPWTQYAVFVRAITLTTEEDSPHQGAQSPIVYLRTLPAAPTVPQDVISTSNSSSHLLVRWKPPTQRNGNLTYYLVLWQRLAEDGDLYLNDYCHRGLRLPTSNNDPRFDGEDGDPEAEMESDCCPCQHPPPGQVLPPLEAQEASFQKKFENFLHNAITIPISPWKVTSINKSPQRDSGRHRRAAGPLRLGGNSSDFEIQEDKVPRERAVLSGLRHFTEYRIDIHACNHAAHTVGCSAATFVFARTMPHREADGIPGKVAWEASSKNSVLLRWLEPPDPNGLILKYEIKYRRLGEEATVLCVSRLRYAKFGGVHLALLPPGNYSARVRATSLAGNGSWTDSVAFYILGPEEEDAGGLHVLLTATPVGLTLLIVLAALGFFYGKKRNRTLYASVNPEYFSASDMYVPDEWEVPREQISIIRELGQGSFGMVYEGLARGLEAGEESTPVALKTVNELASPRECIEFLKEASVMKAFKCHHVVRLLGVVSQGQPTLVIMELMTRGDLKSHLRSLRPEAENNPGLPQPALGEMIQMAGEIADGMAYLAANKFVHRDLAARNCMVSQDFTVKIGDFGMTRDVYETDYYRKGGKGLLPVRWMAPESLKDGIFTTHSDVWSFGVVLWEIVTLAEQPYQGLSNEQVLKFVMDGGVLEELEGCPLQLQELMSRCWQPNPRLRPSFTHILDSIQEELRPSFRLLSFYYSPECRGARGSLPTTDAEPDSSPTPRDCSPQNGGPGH

Columns and labels:
Assay in all cases: kinase-Nluc reporter destabilization hit call (1 = scored as downregulated) (binary); higher = compound decreases kinase abundance
Settings in all cases: K562; 2-18 h
EGFR = EGFR (UniProt P00533)
EGFR_G719S = EGFR_G719S (UniProt P00533)
EGFR_G719S_T790M = EGFR_G719S_T790M (UniProt P00533)
EGFR_L718V = EGFR_L718V (UniProt P00533)
EGFR_L858R = EGFR_L858R (UniProt P00533)
EGFR_L861Q = EGFR_L861Q (UniProt P00533)
EGFR_T790M = EGFR_T790M (UniProt P00533)
EPHA2 = EPHA2 (UniProt P29317)
ERBB3 = ERBB3 (UniProt P21860)
[1] = target: ERBB4_R711C (clone: ERBB4_mut) (UniProt Q15303)
ERN1 = ERN1 (UniProt O75460)
FGFR1 = FGFR1 (UniProt P11362)
FGFR2 = FGFR2 (UniProt P21802)
FGFR3 = FGFR3 (UniProt P22607)
FGR = FGR (UniProt P09769)
FLT3 = FLT3 (UniProt P36888)
FYN = FYN (UniProt P06241)
GSK3A = GSK3A (UniProt P49840)
HER2 = HER2 (UniProt P04626)
INSRR = INSRR (UniProt P14616)

Measured: kinase-Nluc reporter destabilization hit call

O=C(Nc1nc(=O)n(Cc2ccc(Cl)cc2)s1)c1ccc(Cl)cc1 (10 µM)
inactive: EGFR 0 | EGFR_G719S 0 | EGFR_G719S_T790M 0 | EGFR_L718V 0 | EGFR_L858R 0 | EGFR_L861Q 0 | EGFR_T790M 0 | EPHA2 = 0 | ERBB3 = 0 | [1] 0 | ERN1 = 0 | FGFR1 = 0 | FGFR2 = 0 | FGFR3 = 0 | FGR 0 | FLT3 = 0 | FYN 0 | GSK3A 0 | HER2 = 0 | INSRR 0

O=c1cc(-c2cccc3c2Sc2ccccc2S3)oc(N2CCOCC2)c1 (10 µM)
inactive: EGFR 0 | EGFR_G719S 0 | EGFR_G719S_T790M 0 | EGFR_L718V 0 | EGFR_L858R 0 | EGFR_L861Q 0 | EGFR_T790M 0 | EPHA2 = 0 | ERBB3 = 0 | [1] 0 | ERN1 = 0 | FGFR1 = 0 | FGFR2 = 0 | FGFR3 = 0 | FGR 0 | FLT3 = 0 | FYN 0 | GSK3A 0 | HER2 = 0 | INSRR 0

C#Cc1cccc(Nc2ncnc3cc(OC)c(OCCCCCCC(=O)NO)cc23)c1 (2.5 µM)
inactive: EGFR 0 | EGFR_G719S 0 | EGFR_G719S_T790M 0 | EGFR_L718V 0 | EGFR_L858R 0 | EGFR_L861Q 0 | EGFR_T790M 0 | EPHA2 = 0 | ERBB3 = 0 | [1] 0 | ERN1 = 0 | FGFR1 = 0 | FGFR2 = 0 | FGFR3 = 0 | FGR 0 | FLT3 = 0 | FYN 0 | GSK3A 0 | HER2 = 0 | INSRR 0

CCCNC(=O)Nc1ccc(Oc2ncnc3cc(OC)c(OC)cc23)cc1Cl (2.5 µM)
inactive: EGFR 0 | EGFR_G719S 0 | EGFR_G719S_T790M 0 | EGFR_L718V 0 | EGFR_L858R 0 | EGFR_L861Q 0 | EGFR_T790M 0 | EPHA2 = 0 | ERBB3 = 0 | [1] 0 | ERN1 = 0 | FGFR1 = 0 | FGFR2 = 0 | FGFR3 = 0 | FGR 0 | FLT3 = 0 | FYN 0 | GSK3A 0 | HER2 = 0 | INSRR 0

COc1ccc2cc(-c3nc(-c4ccc([S+](C)[O-])cc4)[nH]c3-c3ccncc3)ccc2c1 (stereo not given) [Tie2 kinase inhibitor 1] (2.5 µM)
inactive: EGFR 0 | EGFR_G719S 0 | EGFR_G719S_T790M 0 | EGFR_L718V 0 | EGFR_L858R 0 | EGFR_L861Q 0 | EGFR_T790M 0 | EPHA2 = 0 | ERBB3 = 0 | [1] 0 | ERN1 = 0 | FGFR1 = 0 | FGFR2 = 0 | FGFR3 = 0 | FGR 0 | FLT3 = 0 | FYN 0 | GSK3A 0 | HER2 = 0 | INSRR 0

Nc1n[nH]c2nc(-c3ccc(NS(=O)(=O)c4cc(Cl)ccc4F)cc3)cnc12 (10 µM)
active: EGFR_T790M 1
inactive: EGFR 0 | EGFR_G719S 0 | EGFR_G719S_T790M 0 | EGFR_L718V 0 | EGFR_L858R 0 | EGFR_L861Q 0 | EPHA2 = 0 | ERBB3 = 0 | [1] 0 | ERN1 = 0 | FGFR1 = 0 | FGFR2 = 0 | FGFR3 = 0 | FGR 0 | FLT3 = 0 | FYN 0 | GSK3A 0 | HER2 = 0 | INSRR 0

C[C@@H]1CC(=O)c2c(ccc3c2C(=O)c2cccc(O)c2C3=O)C1 [Ochromycinone] (10 µM)
inactive: EGFR 0 | EGFR_G719S 0 | EGFR_G719S_T790M 0 | EGFR_L718V 0 | EGFR_L858R 0 | EGFR_L861Q 0 | EGFR_T790M 0 | EPHA2 = 0 | ERBB3 = 0 | [1] 0 | ERN1 = 0 | FGFR1 = 0 | FGFR2 = 0 | FGFR3 = 0 | FGR 0 | FLT3 = 0 | FYN 0 | GSK3A 0 | HER2 = 0 | INSRR 0

C=CC(=O)Nc1cccc(-c2cccc3cnc(Nc4ccc(N5CCN(CCO)CC5)c(F)c4F)nc23)c1 [Olafertinib] (2.5 µM)
inactive: EGFR 0 | EGFR_G719S 0 | EGFR_G719S_T790M 0 | EGFR_L718V 0 | EGFR_L858R 0 | EGFR_L861Q 0 | EGFR_T790M 0 | EPHA2 = 0 | ERBB3 = 0 | [1] 0 | ERN1 = 0 | FGFR1 = 0 | FGFR2 = 0 | FGFR3 = 0 | FGR 0 | FLT3 = 0 | FYN 0 | GSK3A 0 | HER2 = 0 | INSRR 0

C[C@@H]1CN(c2cc(-c3n[nH]c4ccc(OC5(C)CC5)cc34)ncn2)C[C@H](C)O1 (10 µM)
inactive: EGFR 0 | EGFR_G719S 0 | EGFR_G719S_T790M 0 | EGFR_L718V 0 | EGFR_L858R 0 | EGFR_L861Q 0 | EGFR_T790M 0 | EPHA2 = 0 | ERBB3 = 0 | [1] 0 | ERN1 = 0 | FGFR1 = 0 | FGFR2 = 0 | FGFR3 = 0 | FGR 0 | FLT3 = 0 | FYN 0 | GSK3A 0 | HER2 = 0 | INSRR 0

Cc1cc2sc(NC(=O)Cc3ccccc3)nc2cc1Cl (10 µM)
inactive: EGFR 0 | EGFR_G719S 0 | EGFR_G719S_T790M 0 | EGFR_L718V 0 | EGFR_L858R 0 | EGFR_L861Q 0 | EGFR_T790M 0 | EPHA2 = 0 | ERBB3 = 0 | [1] 0 | ERN1 = 0 | FGFR1 = 0 | FGFR2 = 0 | FGFR3 = 0 | FGR 0 | FLT3 = 0 | FYN 0 | GSK3A 0 | HER2 = 0 | INSRR 0

C=CC(=O)Nc1cccc(CNc2nc(Nc3ccc(N4CCN(C)CC4)cc3OC)ncc2Cl)c1 (10 µM)
inactive: EGFR 0 | EGFR_G719S 0 | EGFR_G719S_T790M 0 | EGFR_L718V 0 | EGFR_L858R 0 | EGFR_L861Q 0 | EGFR_T790M 0 | EPHA2 = 0 | ERBB3 = 0 | [1] 0 | ERN1 = 0 | FGFR1 = 0 | FGFR2 = 0 | FGFR3 = 0 | FGR 0 | FLT3 = 0 | FYN 0 | GSK3A 0 | HER2 = 0 | INSRR 0

Cc1nn(C)c2c1C(c1ccc(C(F)(F)F)cc1)C(C#N)=C(N)O2 (stereo not given) (10 µM)
inactive: EGFR 0 | EGFR_G719S 0 | EGFR_G719S_T790M 0 | EGFR_L718V 0 | EGFR_L858R 0 | EGFR_L861Q 0 | EGFR_T790M 0 | EPHA2 = 0 | ERBB3 = 0 | [1] 0 | ERN1 = 0 | FGFR1 = 0 | FGFR2 = 0 | FGFR3 = 0 | FGR 0 | FLT3 = 0 | FYN 0 | GSK3A 0 | HER2 = 0 | INSRR 0

CN1C(=O)[C@@H](NC(=O)c2n[nH]c(Cc3ccccc3)n2)COc2ccccc21 (10 µM)
inactive: EGFR 0 | EGFR_G719S 0 | EGFR_G719S_T790M 0 | EGFR_L718V 0 | EGFR_L858R 0 | EGFR_L861Q 0 | EGFR_T790M 0 | EPHA2 = 0 | ERBB3 = 0 | [1] 0 | ERN1 = 0 | FGFR1 = 0 | FGFR2 = 0 | FGFR3 = 0 | FGR 0 | FLT3 = 0 | FYN 0 | GSK3A 0 | HER2 = 0 | INSRR 0

COc1c(Nc2cc(C)[nH]n2)nc(Sc2ccc(S(=O)(=O)Cc3cccc([N+](=O)[O-])c3F)cc2F)nc1N1CCCCC1 [Centrinone-B] (2.5 µM)
inactive: EGFR 0 | EGFR_G719S 0 | EGFR_G719S_T790M 0 | EGFR_L718V 0 | EGFR_L858R 0 | EGFR_L861Q 0 | EGFR_T790M 0 | EPHA2 = 0 | ERBB3 = 0 | [1] 0 | ERN1 = 0 | FGFR1 = 0 | FGFR2 = 0 | FGFR3 = 0 | FGR 0 | FLT3 = 0 | FYN 0 | GSK3A 0 | HER2 = 0 | INSRR 0

NC1=NCCN1CC(=O)O [Cyclocreatine] (10 µM)
inactive: EGFR 0 | EGFR_G719S 0 | EGFR_G719S_T790M 0 | EGFR_L718V 0 | EGFR_L858R 0 | EGFR_L861Q 0 | EGFR_T790M 0 | EPHA2 = 0 | ERBB3 = 0 | [1] 0 | ERN1 = 0 | FGFR1 = 0 | FGFR2 = 0 | FGFR3 = 0 | FGR 0 | FLT3 = 0 | FYN 0 | GSK3A 0 | HER2 = 0 | INSRR 0

CNc1cc(Nc2cccn(-c3ccccn3)c2=O)nn2c(C(=O)N[C@@H]3C[C@@H]3F)cnc12 (2.5 µM)
inactive: EGFR 0 | EGFR_G719S 0 | EGFR_G719S_T790M 0 | EGFR_L718V 0 | EGFR_L858R 0 | EGFR_L861Q 0 | EGFR_T790M 0 | EPHA2 = 0 | ERBB3 = 0 | [1] 0 | ERN1 = 0 | FGFR1 = 0 | FGFR2 = 0 | FGFR3 = 0 | FGR 0 | FLT3 = 0 | FYN 0 | GSK3A 0 | HER2 = 0 | INSRR 0

COc1cc(/C=C/C(=O)N2CCC=CC2=O)cc(OC)c1OC [Piperlongumine] (2.5 µM)
inactive: EGFR 0 | EGFR_G719S 0 | EGFR_G719S_T790M 0 | EGFR_L718V 0 | EGFR_L858R 0 | EGFR_L861Q 0 | EGFR_T790M 0 | EPHA2 = 0 | ERBB3 = 0 | [1] 0 | ERN1 = 0 | FGFR1 = 0 | FGFR2 = 0 | FGFR3 = 0 | FGR 0 | FLT3 = 0 | FYN 0 | GSK3A 0 | HER2 = 0 | INSRR 0

O=C(O)c1cccc(CN2C(=O)/C(=C(\c3ccccc3)c3ccc(Cl)cc3)c3ccccc32)c1 (2.5 µM)
inactive: EGFR 0 | EGFR_G719S 0 | EGFR_G719S_T790M 0 | EGFR_L718V 0 | EGFR_L858R 0 | EGFR_L861Q 0 | EGFR_T790M 0 | EPHA2 = 0 | ERBB3 = 0 | [1] 0 | ERN1 = 0 | FGFR1 = 0 | FGFR2 = 0 | FGFR3 = 0 | FGR 0 | FLT3 = 0 | FYN 0 | GSK3A 0 | HER2 = 0 | INSRR 0

CCCCCCCCCCCCCCCCOP(=O)([O-])OCC[N+](C)(C)C [Miltefosine] (10 µM)
inactive: EGFR 0 | EGFR_G719S 0 | EGFR_G719S_T790M 0 | EGFR_L718V 0 | EGFR_L858R 0 | EGFR_L861Q 0 | EGFR_T790M 0 | EPHA2 = 0 | ERBB3 = 0 | [1] 0 | ERN1 = 0 | FGFR1 = 0 | FGFR2 = 0 | FGFR3 = 0 | FGR 0 | FLT3 = 0 | FYN 0 | GSK3A 0 | HER2 = 0 | INSRR 0

Ordered by molar mass (low to high): 3 of the compounds above.
CN1C(=O)[C@@H](NC(=O)c2n[nH]c(Cc3ccccc3)n2)COc2ccccc21 (10 µM)
inactive: EGFR 0 | EGFR_G719S 0 | EGFR_G719S_T790M 0 | EGFR_L718V 0 | EGFR_L858R 0 | EGFR_L861Q 0 | EGFR_T790M 0 | EPHA2 = 0 | ERBB3 = 0 | [1] 0 | ERN1 = 0 | FGFR1 = 0 | FGFR2 = 0 | FGFR3 = 0 | FGR 0 | FLT3 = 0 | FYN 0 | GSK3A 0 | HER2 = 0 | INSRR 0

O=c1cc(-c2cccc3c2Sc2ccccc2S3)oc(N2CCOCC2)c1 (10 µM)
inactive: EGFR 0 | EGFR_G719S 0 | EGFR_G719S_T790M 0 | EGFR_L718V 0 | EGFR_L858R 0 | EGFR_L861Q 0 | EGFR_T790M 0 | EPHA2 = 0 | ERBB3 = 0 | [1] 0 | ERN1 = 0 | FGFR1 = 0 | FGFR2 = 0 | FGFR3 = 0 | FGR 0 | FLT3 = 0 | FYN 0 | GSK3A 0 | HER2 = 0 | INSRR 0

CNc1cc(Nc2cccn(-c3ccccn3)c2=O)nn2c(C(=O)N[C@@H]3C[C@@H]3F)cnc12 (2.5 µM)
inactive: EGFR 0 | EGFR_G719S 0 | EGFR_G719S_T790M 0 | EGFR_L718V 0 | EGFR_L858R 0 | EGFR_L861Q 0 | EGFR_T790M 0 | EPHA2 = 0 | ERBB3 = 0 | [1] 0 | ERN1 = 0 | FGFR1 = 0 | FGFR2 = 0 | FGFR3 = 0 | FGR 0 | FLT3 = 0 | FYN 0 | GSK3A 0 | HER2 = 0 | INSRR 0
